Experimental data reported in patent US20120315277A1, “Compositions and Methods for the Therapy and Diagnosis of Influenza” (priority 2011, published 2012).
Some entries share one result that the patent states for a list of compounds.

Tested on: H5N1 (A/VN/1203/04)
Conditions: mouse, in vivo

CCOC(=O)C1=C[C@@H](OC(CC)CC)[C@H](NC(C)=O)[C@@H](N)C1 [oseltamivir]
day at which mice begin to die: 8 to 9 days
